The whole screen tested about 340,000 compounds, of which about 4,500 (1.3%) were called active. This list was built around the results that the source calls inconclusive (neither active nor inactive); the mix of calls is not that of the screen. Calls come from the whole dose curve; as a rule, active = well fitted inhibition curve with a large enough effect; inconclusive = small, poorly fitted or top-dose-only effect, or another doubt; inactive = no such curve, though single readings can be large or run the other way. Potencies of inconclusive entries are doubtful fits and often do not repeat.
Target: DNA polymerase beta (Homo sapiens) (UniProt P06746)
Test: qHTS Assay for Inhibitors of DNA Polymerase Beta
Conditions: Pol beta primer extension/strand displacement, fluorescence kinetic; activity change, negative = inhibition: at 114 µM (top of the series)
In short: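 Homogeneous kinetic assay of primer extension and strand displacement by 10 nM Pol beta, preincubated 15 min at room temperature with compound before 50 nM substrate (final) was added. Read at 0 and 10 min; four-parameter Hill fit.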
% is set by controls: 0 for no effect and ±100 for the full control effect; potency is the fitted concentration of half-maximal effect.

| Compound | Potency | activity change, negative = inhibition |
| --- | --- | --- |
| CCOC(=O)C1CCCN(C(=O)Cc2ccc(C)cc2)C1 (stereo not drawn) | inconclusive: 2.51 µM [inhibitor, partial curve, poor fit] | – |
| CCOC(=O)C1(CCCc2ccccc2)CCN(C(=O)CCCn2cncn2)CC1 | inconclusive: 22.4 µM [inhibitor, single point] | – |
| Cc1cccc(Nc2nnc(SCC(=O)Nc3cccc(S(=O)(=O)N4CCCCC4)c3)s2)c1 | inconclusive: 79.4 µM [inhibitor, single point] | – |
| Cc1cc2c(cc1C)NC(=O)CC(C(F)(F)C(F)(F)C(F)(F)F)=N2 | inconclusive: 39.8 µM [inhibitor, single point] | – |
| COCCN1C(=O)/C(=C/c2ccc(N3CCCC3)cc2C)SC1=S | – | inactive: 17.4% |
| CC(C)[C@H](NC(=O)C1CC(=O)N(c2ccc3c(c2)OCO3)C1)C(=O)NC1CCCC1 (stereo partly drawn) | – | inconclusive: -64.9% [inhibitor] |
| O=C(NNC1=Nc2cccc3cccc1c23)c1ccc(Br)cc1 | inconclusive: 14.1 µM [inhibitor, full curve] | – |
| CCOC(=O)CSc1nc2ccc(NC(=O)COc3ccccc3C)cc2s1 | – | inactive: -23.3% |
| COc1ccc(/C=C/C(=O)NCC(=O)N/N=C/c2cc(Br)ccc2OCc2ccccc2)cc1 | inconclusive: 7.08 µM [inhibitor, full curve] | – |
| CCCCc1ccc(NC(=O)C2(C)Cc3ccccc3C(=O)O2)cc1 (stereo not drawn) | inconclusive: 89.1 µM [inhibitor, single point] | – |
| Cc1csc(NC(=O)C2COc3ccccc3O2)n1 (stereo not drawn) | – | inactive: 1.31% |
| c1ccc(C2CC(c3cccs3)=NN2c2ccccc2)cc1 (stereo not drawn) | inconclusive: 89.1 µM [inhibitor, single point] | – |
| Cc1[nH][nH]c(=O)c1C(c1ccc(-c2ccc(Cl)c(C(=O)O)c2)o1)c1c(C)[nH][nH]c1=O | – | inactive: -24.8% |
| CC(C(=O)N(C)C1CCS(=O)(=O)C1)N1C(=O)/C(=C/c2ccco2)SC1=S (stereo not drawn) | – | inconclusive: -76.7% [inhibitor] |
| COC(=O)CN(c1ccc(OC)cc1)S(=O)(=O)c1c(C)noc1C | inconclusive: 79.4 µM [inhibitor, partial curve] | – |
| Cc1ccc(C(=O)Nc2cccc(C(F)(F)F)c2)cc1Nc1ncnc2nc[nH]c12 | inconclusive: 89.1 µM [inhibitor, single point] | – |
| Cc1ccccc1N=C1NC(=O)/C(=C/c2cccn2-c2cccc(C(=O)O)c2)S1 | active: 10 µM | – |
| O=C(CC(=O)c1ccccc1)Nc1ccccc1C(F)(F)F | inconclusive: 89.1 µM [inhibitor, single point] | – |
| CCCC(=O)c1ccc(OC(=O)c2c(-c3ccccc3Cl)noc2C)cc1 | – | inactive: -2.91% |
| O=C(Nc1ccc(Cl)c(Cl)c1)Nn1cnnc1 | inconclusive: 5.01 µM [inhibitor, single point] | – |
| O=C(NCCCN1CCOCC1)c1cc(-c2cccc(Br)c2)nc2ccccc12 | inconclusive: 4.47 µM [inhibitor, full curve, poor fit] | – |
| O=c1oc2ccccc2cc1-c1cn2cc(Cc3ccccc3F)sc2n1 | – | inactive: 0.723% |
| COC(=O)c1cc(NS(=O)(=O)c2cc(Br)cc3c2N(C(C)=O)CC3)cc(C(=O)OC)c1 | inconclusive: 89.1 µM [inhibitor, single point] | – |

| Compound | Potency | activity change, negative = inhibition |
| --- | --- | --- |
| CCN(CC)S(=O)(=O)c1ccc2c(c1)N(CC(=O)N(CCc1ccncc1)C(C)C)C(=O)CO2 | inconclusive: 89.1 µM [inhibitor, single point] | – |
| COc1ccc(-c2cc(-c3ccc(Cl)cc3)c(C#N)c(SCC(=O)O)n2)cc1 | active: 31.6 µM | – |
| COc1ccc(N2CCN(C(=O)c3ccc4c(Cl)c5c(nc4c3)CCCC5)CC2)cc1 | inconclusive: 100 µM [inhibitor, single point] | – |
| COc1ccc(S(=O)(=O)N2CCCC2C(=O)Nc2nnc(-c3cccnc3)s2)cc1 (stereo not drawn) | inconclusive: 100 µM [inhibitor, single point] | – |
| CCc1sc(/C=C(/C#N)C(N)=S)cc1[N+](=O)[O-] | inconclusive: 35.5 µM [inhibitor, partial curve] | – |
| O=S(=O)(Nc1ncnc2sc3c(c12)CCC3)c1ccc2ccccc2c1 | inconclusive: 79.4 µM [inhibitor, single point] | – |
| CCc1cc2c(SCC(=O)Nc3ncc(Cl)c(C)c3Cl)ncnc2s1 | inconclusive: 79.4 µM [inhibitor, single point] | – |
| O=C1C=C(c2ccccc2)CC(c2cccs2)C1n1cnc([N+](=O)[O-])c1 (stereo not drawn) | active: 50.1 µM | – |
| Cc1ccccc1N1C(S)=C(C#N)C(=O)NC1c1ccco1 (stereo not drawn) | active: 28.2 µM | – |
| CCCCOc1ccc(Cl)cc1CSc1nnc(CC)n1N | inconclusive: 89.1 µM [inhibitor, single point] | – |
| CCOc1ccccc1NC(=O)CSc1ccc(-c2ccco2)nn1 | inconclusive: 35.5 µM [inhibitor, single point] | – |
| COc1ccc(CN(Cc2ccc(C(=O)O)cc2)C(=S)Nc2cccc(C)c2)cc1OC | inconclusive: 1 µM [inhibitor, full curve, poor fit] | – |
| COc1ccccc1NC(=O)c1ccc(-c2nc(COc3ccc(C)cc3)c(C)o2)cc1 | inconclusive: 89.1 µM [inhibitor, single point] | – |
| C=CCN1C(=O)N(c2ccccc2)C(=O)C1CC(=O)Nc1ccc(OC)cc1 (stereo not drawn) | inconclusive: 100 µM [inhibitor, single point] | – |
| COc1cccc(NC(=S)N(CCc2c(C)[nH]c3ccccc23)Cc2cccs2)c1 | inconclusive: 89.1 µM [inhibitor, single point] | – |
| C=CCOc1ccc(CNCCc2ccc(S(N)(=O)=O)cc2)cc1 | inconclusive: 89.1 µM [inhibitor, single point] | – |
| COC(=O)c1ccc(C)c(NC(=O)Cn2cnc3ccccc3c2=O)c1 | inconclusive: 89.1 µM [inhibitor, single point] | – |
| CCOC(=O)COc1cc(C)c(Cl)cc1C(=O)c1ccn2nc(-c3ccc(OC)cc3)cc2n1 | – | inactive: 14.3% |
| COc1ccc(Cc2c(O)nc(SCC(C)C)[nH]c2=O)cc1 | inconclusive: 0.398 µM [inhibitor, full curve, poor fit] | – |
| CCCn1c(SCc2ccon2)nc2ccccc2c1=O | – | inactive: 9.66% |
| COc1ccc2cc3cc(C(=O)N4CCN(c5ccccn5)CC4)oc3nc2c1 | – | inactive: -5.86% |
| O=C(c1cccc(F)c1)N1CCN(c2cccc(C(F)(F)F)c2)CC1 | inconclusive: 39.8 µM [inhibitor, single point] | – |
| Cc1c(C(=O)O)cccc1-c1ccc(C=O)o1 | active: 28.2 µM | – |

| Compound | Potency | activity change, negative = inhibition |
| --- | --- | --- |
| CNc1ccc(S(=O)(=O)NCC(=O)OCC(=O)Nc2cccc(Cl)c2Cl)cc1[N+](=O)[O-] | inconclusive: 56.2 µM [inhibitor, partial curve] | – |
| O=C(CCNS(=O)(=O)c1cccc2nsnc12)N1CCc2ccccc21 | inconclusive: 0.141 µM [inhibitor, full curve, poor fit] | – |
| CCOc1cc(/C=N/NC(=O)c2cc(C)n(-c3ccc(F)cc3)c2C)ccc1O | inconclusive: 79.4 µM [inhibitor, single point] | – |
| Cc1ccc(CCNC(=O)C2CCC(=O)N2C(C)C)cc1 (stereo not drawn) | inconclusive: 100 µM [inhibitor, single point] | – |
| S=c1[nH]nc(-c2cc(-c3ccccc3)n[nH]2)n1/N=C/c1ccc(Br)s1 | active: 17.8 µM | – |
| COc1cccc(C2CC(=O)N3CN(c4ccccc4F)CSC3=C2C#N)c1 (stereo not drawn) | – | inactive: 22.6% |
| O=C(c1cc2cc(Br)ccc2o1)N1CCN(c2ccccc2)CC1 | inconclusive: 44.7 µM [inhibitor, full curve, poor fit] | – |
| Cc1sc2nc(SCC(=O)Nc3c(C)n(C)n(-c4ccccc4)c3=O)n(C)c(=O)c2c1C | active: 20 µM | – |
| C=CCNC(=O)/C(C#N)=C/c1cn(-c2ccccc2)nc1-c1ccc(OC)c([N+](=O)[O-])c1 | inconclusive: 20 µM [inhibitor, partial curve] | – |
| CC(C)CC(=O)Nc1ccc(Oc2ccc3c(c2)C(=O)NC3=O)cc1 | inconclusive: 0.794 µM [inhibitor, full curve, poor fit] | – |
| CC1Sc2ccc(S(=O)(=O)CCC(=O)N3CCN(c4ccccc4F)CC3)cc2NC1=O (stereo not drawn) | – | inactive: -0.851% |
| CCc1ccc2oc(-c3cccc(NC(=O)COc4ccccc4Cl)c3)nc2c1 | inconclusive: 7.08 µM [inhibitor, full curve] | – |
| Clc1ccccc1COc1ccc(/C=N/n2cnnc2)cc1 | active: 31.6 µM | – |
| COc1cccc(C(=O)NNC(=O)C(=O)Nc2ccc(C)c(Cl)c2)c1 | active: 79.4 µM | – |
| O=c1cc(CSc2nnc(Nc3ccccc3F)s2)nc2sccn12 | inconclusive: 3.55 µM [inhibitor, full curve, poor fit] | – |
| COc1ccc(NC(=O)CN(C)CC(=O)Nc2ccccc2SC)cc1Cl | – | inactive: 17% [at 57.1 µM] |
| CCOC(=O)c1ccc(NC(=O)C2CCCO2)cc1 (stereo not drawn) | – | inactive: 20.4% |
| COc1ccc(-c2cc(C)no2)cc1S(=O)(=O)N1CCCC(C)C1 (stereo not drawn) | inconclusive: 89.1 µM [inhibitor, single point] | – |
| O=C(CSc1ccc(-c2cccnc2)nn1)Nc1ccccc1 | inconclusive: 50.1 µM [inhibitor, partial curve] | – |
| COc1ccccc1N1CCN(C2=NS(=O)(=O)c3ccccc32)CC1 | inconclusive: 39.8 µM [inhibitor, single point] | – |
| Cc1[nH]c2c(C)cccc2c1CN1CCC(CO)(Cc2ccccc2)CC1 | inconclusive: 0.0251 µM [inhibitor, full curve, poor fit] | – |
| O=C(CCOc1ccccc1)OCC(=O)c1cc2ccccc2o1 | inconclusive: 25.1 µM [inhibitor, full curve, poor fit] | – |

Reprinted at random: 6 compounds from above, in no set order.

| Compound | Potency | activity change, negative = inhibition |
| --- | --- | --- |
| C=CCNC(=O)/C(C#N)=C/c1cn(-c2ccccc2)nc1-c1ccc(OC)c([N+](=O)[O-])c1 | inconclusive: 20 µM [inhibitor, partial curve] | – |
| O=C(CCNS(=O)(=O)c1cccc2nsnc12)N1CCc2ccccc21 | inconclusive: 0.141 µM [inhibitor, full curve, poor fit] | – |
| Cc1[nH]c2c(C)cccc2c1CN1CCC(CO)(Cc2ccccc2)CC1 | inconclusive: 0.0251 µM [inhibitor, full curve, poor fit] | – |
| CNc1ccc(S(=O)(=O)NCC(=O)OCC(=O)Nc2cccc(Cl)c2Cl)cc1[N+](=O)[O-] | inconclusive: 56.2 µM [inhibitor, partial curve] | – |
| COc1ccc(NC(=O)CN(C)CC(=O)Nc2ccccc2SC)cc1Cl | – | inactive: 17% [at 57.1 µM] |
| S=c1[nH]nc(-c2cc(-c3ccccc3)n[nH]2)n1/N=C/c1ccc(Br)s1 | active: 17.8 µM | – |

From PubChem BioAssay AID485314 (National Center for Advancing Translational Sciences (NCATS), 2010)
